Test results taken from patent US10226045B2, “Azoline compounds” (priority 2014, dated 2019).
Some of these results come from one statement about several compounds together.

Columns and labels:
Assay type in all cases: in vivo
[1] = tested on: Diamond Back Moth (Plutella xylostella); experiment: Diamond back moth, cabbage leaf dip test; conditions: 300 ppm; 3rd instar larvae on dipped cabbage leaves; 72 hours after treatment; in comparison with untreated controls
Method: B.1 Diamond Back Moth (Plutella xylostella)
The active compound was dissolved at the desired concentration in a mixture of 1:1 (vol:vol) distilled water:aceteone. Surfactant (Kinetic HV) was added at a rate of 0.01% (vol/vol). The test solution was prepared at the day of use.
Leaves of cabbage were dipped in test solution and air-dried. Treated leaves were placed in petri dishes lined with moist filter paper and inoculated with ten 3rd instar larvae. Mortality was recorded 72 hours after treatment.

[2] = tested on: Green Peach Aphid (Myzus persicae); experiment: Green peach aphid, systemic test on artificial diet in microtiter plates; conditions: 2500 ppm; adult aphids on treated artificial diet; 3 days; in comparison with untreated controls
From the text: B.2 Green Peach Aphid (Myzus persicae)
For evaluating control of green peach aphid (Myzus persicae) through systemic means the test unit consisted of 96-well-microtiter plates containing liquid artificial diet under an artificial mem brane.
The compounds were formulated using a solution containing 75% v/v water and 25% v/v DMSO. Different concentrations of formulated compounds were pipetted into the aphid diet, using a custom built pipetter, at two replications.
After application, 5-8 adult aphids were placed on the artificial membrane inside the microtiter plate wells. The aphids were then allowed to suck on the treated aphid diet and incubated at about 23±1° C. and about 50±5% relative humidity for 3 days. Aphid mortality and fecundity was then visually assessed.

[3] = tested on: Vetch Aphid (Megoura viciae); experiment: Vetch aphid, broad bean leaf disk test; conditions: 2500 ppm; adult aphids on sprayed broad bean leaf disks; 5 days; in comparison with untreated controls
Method: B.3 Vetch Aphid (Megoura viciae)
For evaluating control of vetch aphid (Megoura viciae) through contact or systemic means the test unit consisted of 24-well-microtiter plates containing broad bean leaf disks.
The compounds were formulated using a solution containing 75% v/v water and 25% v/v DMSO. Different concentrations of formulated compounds were sprayed onto the leaf disks at 2.5 μl, using a custom built micro atomizer, at two replications.
After application, the leaf disks were air-dried and 5-8 adult aphids placed on the leaf disks inside the microtiter plate wells. The aphids were then allowed to suck on the treated leaf disks and incubated at about 23±1° C. and about 50±5% relative humidity for 5 days. Aphid mortality and fecundity was then visually assessed.

[4] = tested on: Tobacco Budworm (Heliothis virescens); experiment: Tobacco budworm, insect diet microtiter plate test; conditions: 2500 ppm; eggs on sprayed insect diet; egg and larval mortality after 5 days; in comparison with untreated controls
Method: B.4 Tobacco Budworm (Heliothis virescens)
For evaluating control of tobacco budworm (HeliothiS virescens) the test unit consisted of 96-well-microtiter plates containing an insect diet and 15-25 H. virescens eggs.
The compounds were formulated using a solution containing 75% v/v water and 25% v/v DMSO. Different concentrations of formulated compounds were sprayed onto the insect diet at 10 μl, using a custom built micro atomizer, at two replications.
(§1) After application, microtiter plates were incubated at about 28±1° C. and about 80±5% relative humidity for 5 days. Egg and larval mortality was then visually assessed.

[5] = tested on: Boll Weevil (Anthonomus grandis); experiment: Boll weevil, insect diet microtiter plate test; conditions: 2500 ppm; eggs on sprayed insect diet; egg and larval mortality after 5 days; in comparison with untreated controls
Method: B.5 Boll Weevil (Anthonomus grandis)
For evaluating control of boll weevil (Anthonomus grandis) the test unit consisted of 96-well-microtiter plates containing an insect diet and 5-10 A. grandis eggs.
(§2) The compounds were formulated using a solution containing 75% v/v water and 25% v/v DMSO. Different concentrations of formulated compounds were sprayed onto the insect diet at 5 μl, using a custom built micro atomizer, at two replications.
After application, microtiter plates were incubated at about 25±1° C. and about 75±5% relative humidity for 5 days. Egg and larval mortality was then visually assessed.

[6] = tested on: Mediterranean Fruitfly (Ceratitis capitata); experiment: Mediterranean fruitfly, insect diet microtiter plate test; conditions: 2500 ppm; eggs on sprayed insect diet; egg and larval mortality after 5 days; in comparison with untreated controls
Method: B.6 Mediterranean Fruitfly (Ceratitis capitata)
as §2, with “For evaluating control of Mediterranean fruitfly (CeratitiS capitata) the test unit consisted of microtiter plates containing an insect diet and 50-80 C. capitata eggs. The” for “The”
as §1

[7] = tested on: Orchid Thrips (dichromothrips corbetti); experiment: Orchid thrips, floral-immersion technique; conditions: 300 ppm; adult thrips on dipped orchid petals; 72 hours after treatment; in comparison with untreated controls
Method: B.7 Orchid Thrips (dichromothrips corbetti)
Dichromothrips corbetti adults used for bioassay were obtained from a colony maintained continuously under laboratory conditions. For testing purposes, the test compound is diluted in a 1:1 mixture of acetone:water (vol:vol), plus Kinetic HV at a rate of 0.01% v/v.
Thrips potency of each compound was evaluated by using a floral-immersion technique. All petals of individual, intact orchid flowers were dipped into treatment solution and allowed to dry in Petri dishes. Treated petals were placed into individual re-sealable plastic along with about 20 adult thrips. All test arenas were held under continuous light and a temperature of about 28° C. for duration of the assay. After 3 days, the numbers of live thrips were counted on each petal. The percent mortality was recorded 72 hours after treatment.

[8] = tested on: Rice Green Leafhopper (Nephotettix virescens); experiment: Rice green leafhopper, sprayed rice seedlings; conditions: 300 ppm; adults on sprayed rice seedlings; after 72 hours; in comparison with untreated controls
Method: B.8 Rice Green Leafhopper (Nephotettix virescens)
Rice seedlings were cleaned and washed 24 hours before spraying. The active compounds were formulated in 1:1 acetone:water (vol:vol), and 0.01% vol/vol surfactant (Kinetic HV) was added. Potted rice seedlings were sprayed with 5-6 ml test solution, air dried, covered with Mylar cages cages and inoculated with 10 adults. Treated rice plants were kept at about 28-29° C. and relative humidity of about 50-60%. Percent mortality was recorded after 72 hours.

[9] = tested on: Red Spider Mite (Tetranychus kanzawai); experiment: Red spider mite, sprayed cowpea beans; conditions: 300 ppm; mites on sprayed cowpea beans; 72 hours after treatment; in comparison with untreated controls
Method: B.9 Red Spider Mite (Tetranychus kanzawai)
The active compound was dissolved at the desired concentration in a mixture of 1:1 (vol:vol) distilled water:acetone. Add surfactant (Kinetic HV) was added at a rate of 0.01% (vol/vol). The test solution was prepared at the day of use.
Potted cowpea beans of 4-5 days of age were cleaned with tap water and sprayed with 1-2 ml of the test solution using air driven hand atomizer. The treated plants were allowed to air dry and afterwards inoculated with 30 or more mites by clipping a cassava leaf section from rearing population. Treated plants were placed inside a holding room at about 25-27° C. and about 50-60% relative humidity. Percent mortality was assessed 72 hours after treatment.

[10] = tested on: Green Soldier Stink Bug (Nezara viridula); experiment: Green soldier stink bug, sprayed soybean pods in Petri dishes; conditions: 300 ppm; late 3rd instar on soybean pods; after 5 days; in comparison with untreated controls
Method: B.11 Green Soldier Stink Bug (Nezara viridula)
The active compound was dissolved at the desired concentration in a mixture of 1:1 (vol:vol) distilled water:acetone. Surfactant (Kinetic HV) was added at a rate of 0.01% (vol/vol). The test solution was prepared at the day of use.
Soybean pods were placed in glass Petri dishes lined with moist filter paper and inoculated with ten late 3rd instar N. viridula. Using a hand atomizer, approximately 2 ml solution is sprayed into each Petri dish. Assay arenas were kept at about 25° C. Percent mortality was recorded after 5 days.

Measured: mortality

O=C(NCC1(C(F)F)CC1)c1ccc(C2=NOC(c3cc(Cl)c(F)c(Cl)c3)(C(F)(F)F)C2)c2c1CCC2 (racemic) [Compound 1-65]
at least 75%: all assays above

O=C(CNC(=O)c1ccc(C2=NOC(c3cc(Cl)c(F)c(Cl)c3)(C(F)(F)F)C2)c2c1CCC2)NCC1CC1 (racemic) [Compound 1-66]
at least 75%: all assays above

O=C(NC1CCC1)c1ccc(C2=NOC(c3cc(Cl)c(F)c(Cl)c3)(C(F)(F)F)C2)c2c1CCC2 (racemic) [Compound 1-67]
at least 75%: all assays above

O=C(NCc1ncc(Cl)cn1)c1ccc(C2=NOC(c3cc(Cl)c(F)c(Cl)c3)(C(F)(F)F)C2)c2c1CCC2 (racemic) [Compound 1-72]
at least 75%: all assays above

C/C=C/CNC(=O)c1ccc(C2=NOC(c3cc(Cl)c(F)c(Cl)c3)(C(F)(F)F)C2)c2c1CCC2 (centres unmarked) [Compound 1-22]
at least 75%: all assays above

O=C(NCC1CC1)c1ccc(C2=NOC(c3cc(Cl)cc(Cl)c3)(C(F)(F)F)C2)c2c1CCC2 (centres unmarked) [Compound 1-35]
at least 75%: all assays above

CN(Cc1ccccn1)C(=O)c1ccc(C2=NOC(c3cc(Cl)cc(Cl)c3)(C(F)(F)F)C2)c2c1CCC2 (centres unmarked) [Compound 1-40]
at least 75%: all assays above

CCN(Cc1ccccn1)C(=O)c1ccc(C2=NOC(c3cc(Cl)cc(Cl)c3)(C(F)(F)F)C2)c2c1CCC2 (centres unmarked) [Compound 1-41]
at least 75%: all assays above

CCNC(=O)c1ccc(C2=NOC(c3cc(Cl)c(F)c(Cl)c3)(C(F)(F)F)C2)c2c1CCC2 (centres unmarked) [Compound 1-44]
at least 75%: all assays above

CCNC(=O)CNC(=O)c1ccc(C2=NOC(c3cc(Cl)c(F)c(Cl)c3)(C(F)(F)F)C2)c2c1CCC2 (centres unmarked) [Compound 1-45]
at least 75%: all assays above

O=C(NC1CC1)c1ccc(C2=NOC(c3cc(Cl)c(F)c(Cl)c3)(C(F)(F)F)C2)c2c1CCC2 (centres unmarked) [Compound 1-46]
at least 75%: all assays above
